Consider two molecules from patent US20170258835A1.

Protein sequences, listed by entry. Tags and fused reporters are not part of them. Lines headed by an entry give the natural chain unless they say otherwise; changes in a name come on top.
UniProt P26842: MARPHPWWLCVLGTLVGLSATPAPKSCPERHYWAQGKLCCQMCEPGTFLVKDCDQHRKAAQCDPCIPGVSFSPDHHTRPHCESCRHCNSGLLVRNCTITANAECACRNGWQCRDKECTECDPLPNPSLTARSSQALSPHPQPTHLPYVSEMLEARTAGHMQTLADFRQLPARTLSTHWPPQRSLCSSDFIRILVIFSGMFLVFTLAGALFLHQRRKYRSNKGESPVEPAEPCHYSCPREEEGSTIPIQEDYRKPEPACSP

These are yes or no findings as the source states them, for the method shown. Some entries that bind do so weakly or less than the wild type.

Assay [1] addresses CD27-Z CLEAR (UniProt P26842). Description: flow cytometry, surface staining for CD27 and mIgG Fab on co-electroporated T cells.
The target of assay [2] is CD27-Z CLEAR (UniProt P26842). Nature of the assay: flow cytometry, anti-mouse IgG Fab against anti-CD27 on co-electroporated T cells. Background: Flow cytometry measures light scatter and fluorescence of single cells or particles in a stream.

B1: M709.CD19 bi-specific antibody (bispecific antibody)
chain: DIVMTQSPDSLAVSLGERATINCKASQSVDYAGESFMNWYQQKPGQPPKLLIYAASNLESGVPDRFSGSGSGTDFTLTISSLQAEDVAVYYCQQSNEDPYTFGQGTKLEIKGGGGSGGGGSGGGGSEVQLVQSGAEVKKPGESLKISCKGSGYAFSSSWMNWVRQMPGKGLEWMGRIYAGDADTAYSPSFQGQVTISADKSISTAYLQWSSLKASDTAMYYCARSDYYGDYGFAYWGQGTLVTVSSGGGGSDIQMTQTTSSLSASLGDRVTISCRASQDISKYLNWYQQKPDGTVKLLIYHTSRLHSGVPSRFSGSGSGTDYSLTISNLEQEDIATYFCQQGNTLPYTFGGGTKLEITGGGGSGGGGSGGGGSEVKLQESGPGLVAPSQSLSVTCTVSGVSLPDYGVSWIRQPPRKGLEWLGVIWGSETTYYNSALKSRLTIIKDNSKSQVFLKMNSLQTDDTAIYYCAKHYYYGGSYAMDYWGQGTSVTVSS
B1: the binding entry with CD27-Z CLEAR [1] and with CD27-Z CLEAR [2] was “binds” in each case.

B2: M708.CD19 bi-specific antibody (bispecific antibody)
chain: DIQMTQSPSSLSASVGDRVTITCRASKSVSTSGYSFMHWYQQKPGKAPKLLIYVGSRLDYGVPSRFSGSGSGTDFTLTISSLQPEDFATYYCQHSRELPWTFGQGTKVEIKGGGGSGGGGSGGGGSEVQLLESGGGLVQPGGSLRLSCAASGFTFSSYTMSWVRQAPGKGLEWVSVIDHGGGSTHYPDSVKGRFTISRDNSKNTLYLQMNSLRAEDTAVYYCARHRGNPFDYWGQGTLVTVSSGGGGSDIQMTQTTSSLSASLGDRVTISCRASQDISKYLNWYQQKPDGTVKLLIYHTSRLHSGVPSRFSGSGSGTDYSLTISNLEQEDIATYFCQQGNTLPYTFGGGTKLEITGGGGSGGGGSGGGGSEVKLQESGPGLVAPSQSLSVTCTVSGVSLPDYGVSWIRQPPRKGLEWLGVIWGSETTYYNSALKSRLTIIKDNSKSQVFLKMNSLQTDDTAIYYCAKHYYYGGSYAMDYWGQGTSVTVSS
As for B2, the binding entry with CD27-Z CLEAR [1] is recorded as “binds”.
